Experimental data reported in PMC4594013 (Frontiers in Pharmacology, 2015).
Read-outs that look alike come from different tables or passages of the source.

Columns and labels:
OAT2-tv1 [1] = target: T1, OAT2-tv1 (Homo sapiens, UniProt Q9Y694); set-up: The open reading frame of the human ortholog of OAT2 transcript variant 1 (OAT2-tv1) containing 546 amino acids was amplified from human kidney cDNA; expressed in transfected cells; host or cells: CHO Flp-In (A1); CHO, HEK and MDCK Flp-In (A2); settings: inhibition of OAT2-tv1; ref Babelova et al., 2015; cited from earlier work
T1 sequence (Q9Y694 1-546 isoform Q9Y694-2): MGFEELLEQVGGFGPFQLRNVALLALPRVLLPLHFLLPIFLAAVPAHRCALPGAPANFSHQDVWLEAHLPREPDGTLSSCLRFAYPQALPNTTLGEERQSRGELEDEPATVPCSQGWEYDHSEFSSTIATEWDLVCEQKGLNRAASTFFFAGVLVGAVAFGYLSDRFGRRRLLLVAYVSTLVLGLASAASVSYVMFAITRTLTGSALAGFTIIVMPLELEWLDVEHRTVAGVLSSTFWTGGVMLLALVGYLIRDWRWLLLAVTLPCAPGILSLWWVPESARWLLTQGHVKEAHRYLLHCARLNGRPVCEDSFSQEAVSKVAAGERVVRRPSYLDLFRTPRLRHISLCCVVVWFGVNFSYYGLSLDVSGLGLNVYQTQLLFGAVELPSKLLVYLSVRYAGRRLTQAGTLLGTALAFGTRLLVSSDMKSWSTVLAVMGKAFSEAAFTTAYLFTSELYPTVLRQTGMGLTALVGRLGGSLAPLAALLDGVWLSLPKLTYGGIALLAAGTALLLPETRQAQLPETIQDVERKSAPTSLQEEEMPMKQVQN

OAT2-tv1 [2] = target: T1, OAT2-tv1; assay: Inhibition of [3H]penciclovir uptake into CHO-OAT2-tv1 cells; assay type: cell-based; settings: inhibition of [3H]penciclovir uptake by CHO-OAT2-tv1 cells; 5 min, room temperature
Description: All experiments examining cellular radiolabeled compound uptake were conducted using cells grown to confluence in 24-well flat bottom plates. The transport solution consisted of WB (room temperature) containing radiolabeled compound and the uptake period for all experiments was at an initial rate time point of 5 min. [^3H]Penciclovir served as the probe OAT2 substrate. We also examined the uptake of [^3H]para-aminohippurate, [^3H]estrone-3-sulfate, [^14C]glutarate, [^14C]succinate, [^3H]paclitaxel, and [^3H]dehydroepiandrosterone sulfate by OAT2 since published studies indicate that they are substrates of the transport protein ([Sun et al., 2001]; [Kobayashi et al., 2005a]). […] For all cellular uptake experiments, the medium was aspirated and the cells were rinsed once with WB (0.3 ml). Following the uptake period, cells were washed three times with ice-cold WB (0.5 ml each wash). After aspirating the final wash the cells were lysed in 0.5 N NaOH/1% SDS (0.4 ml) for ∼30 min on an orbital shaker. 1 N HCl (0.2 ml) was then added to neutralize the NaOH, and the cell lysates (0.5 ml) were transferred to scintillation vials containing liquid scintillation cocktail (CytoScint ES, MP Biomedicals). Cellular radioactivity content was determined with a Beckman LS6500 liquid scintillation counter. Protein content was determined using the bicinchoninic acid method. […]

In the case of NS(=O)(=O)c1cc(C(=O)O)c(NCc2ccco2)cc1Cl [Furosemide], the IC50 (OAT2-tv1 [1]) is listed as 10.9 µM and the IC50 (OAT2-tv1 [2]) is listed as 10.8 ± 1.5 µM.
